Results from paper PMC7267773, “CCDC61/VFL3 Is a Paralog of SAS6 and Promotes Ciliary Functions” (Structure(London, England:1993), 2020).
Positions count from the first letter of the chain named. In names and notes the source's numbering stands. These are yes or no findings as the source states them, for the method shown. For some of these results: Binding seen in cells or lysates may run through a third protein. Some entries that bind do so weakly or less than the wild type. For some of these results: Tags and fused reporters may be left off the sequences shown. Each block holds one binder with its values, some of them ahead of it.

Columns and labels:
[1] = biological target: hCCDC61^(1-457; F128E/D129A), GFP-tagged and 3xHA-tagged copies (human) (UniProt Q9Y6R9); assay: pull-down; GFP pulldown: GFP- and 3xHA-tagged constructs co-transfected in HEK293T; lysate in 50 mM Tris pH 7.4, 200 mM NaCl, 0.2% NP-40, 10% glycerol; GFP-nanobody resin, 4°C 90 min; western blot
[2] = biological target: hCCDC61^(1-457; F128E/D129A/5E), GFP-tagged and 3xHA-tagged copies (human) (UniProt Q9Y6R9); assay: as above
[3] = biological target: hCCDC61^(1-143; F128E/D129A) (human) (UniProt Q9Y6R9); assay: AUC; velocity sedimentation, approximately 480 μM (7.9 mg/ml), 20 mM Tris-HCl pH 8.0, 150 mM NaCl, 2 mM DTT, 50,000 rpm, 4°C; c(s) distribution; both purified
[4] = biological target: T1, ^15N-labeled head domain of human SAS6^1-143 (human) (UniProt Q6UVJ0); assay: condition: 48 μM of hCCDC61^1-143 with 56 μM of ^15N-labelled hSAS6^1-143; NMR titration; chemical shift perturbation, 2D 1H,15N BEST-Trosy of 56 μM 15N-labelled hSAS6^1-143 alone and with 48 μM hCCDC61^1-143; 20 mM Tris pH8.0, 150 mM NaCl, 2 mM DTT, 20°C; both purified
T1 sequence (chain, 15N-labelled): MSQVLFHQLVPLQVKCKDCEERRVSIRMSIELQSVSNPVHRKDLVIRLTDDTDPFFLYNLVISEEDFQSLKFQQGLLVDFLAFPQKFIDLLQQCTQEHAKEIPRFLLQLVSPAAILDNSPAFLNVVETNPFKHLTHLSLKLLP

B1: hCCDC61^(1-457; F128E/D129A), GFP-tagged and 3xHA-tagged copies (domain or fragment, UniProt Q9Y6R9 1-457)
chain: MDQPAGLQVDYVFRGVEHAVRVMVSGQVLELEVEDRMTADQWRGEFDAGFIEDLTHKTGNFKQFNIFCHMLESALTQSSESVTLDLLTYTDLESLRNRKMGGRPGSLAPRSAQLNSKRYLILIYSVEEARIHYPLPLPYQGKPDPVVLQGIIRSLKEELGRLQGLDGQNTRDTRENEIWHLREQVSRLASEKRELEAQLGRSREEALAGRAARQEAEALRGLVRGLELELRQERGLGHRVAGRRGQDCRRLAKELEEAKASERSLRARLKTLTSELALYKRGRRTPPVQPPPTREDRASSSRERSASRGRGAARSSSRESGRGSRGRGRPARPSPSPTGGRALRFDPTAFVKAKERKQREIQMKQQQRNRLGSGGSGDGPSVSWSRQTQPPAALTGRGDAPNRSRNRSSSVDSFRSRCSSASSCSDLEDFSESLSRGGHRRRGKPPSPTPWSGSNMK
binding [1]: binds

B3: hCCDC61^(1-143; F128E/D129A) (domain or fragment, UniProt Q9Y6R9 1-143)
chain: GSMDQPAGLQVDYVFRGVEHAVRVMVSGQVLELEVEDRMTADQWRGEFDAGFIEDLTHKTGNFKQFNIFCHMLESALTQSSESVTLDLLTYTDLESLRNRKMGGRPGSLAPRSAQLNSKRYLILIYSVEEARIHYPLPLPYQGKP
binding [3]: no binding (tested: approximately 480 μM (7.9 mg/ml))

Continued, values first:

binding [2]: binds
B2: hCCDC61^(1-457; F128E/D129A/5E), GFP-tagged and 3xHA-tagged copies (domain or fragment, UniProt Q9Y6R9 1-457)
chain: B1 chain with K259E, R263E, R266E, R268E, K270E

binding [4]: no binding
B4: N-terminal head domain of human CCDC61 (hCCDC61^1-143) (domain or fragment)
chain: B3 chain with E130F, A131D
notes: extra residues Gly-Ser left at the N-terminus after the His-GST tag was cleaved with tev protease; gene codon optimized for E. coli and synthesized; The crystal (PDB 6HXT) was of the seleno-methionine-substituted protein; also called hCCDC61 head domain; source: E. coli BL21(DE3), purified (GSTrap, tev cleavage, HisTrap flow through, HiTrap Q, PD-10); not shown: His tag, N-terminal, cleaved; GST, …
